From the odorant receptor screen of Mainland et al. (2015) come the findings set out here.

What all share (test): odorant receptor activation (CRE luciferase / Renilla) (fold of no-odor wells); higher = more activation
Common to all, as to conditions: 100 µM

Assay [1] relates to OR51A2 clone 1577.
Assay [2] has as its system OR51A4 G45C/L227P/R267G clone 1166.
The test system of assay [3] is OR51B2 clone 1551.
Assay [4] deals with OR51B4 V36I/M147T clone 1552.
The test system of assay [5] is OR51B5 clone 1553.
The test system of assay [6] is OR51B6 clone 1554.
For assay [7], the system named is OR51D1 clone 1206.
Assay [8] concerns OR51E1 S11N clone 1532.
In assay [9] the test system is OR51E1 clone 1129.
Assay [10] has as its system OR51E2 clone 1205.
The test system of assay [11] is OR51F2 clone 1330.
Assay [12] concerns OR51G1 clone 1165.
Assay [13] relates to OR51G2 clone 1199.
The subject of assay [14] is OR51H1 clone 1187.
For assay [15], the system named is OR51I1 clone 1555.
For assay [16], the system named is OR51I2 clone 1133.
Assay [17] relates to OR51J1 R75H clone 1698.
For assay [18], the system named is OR51L1 I281M clone 1535.
In assay [19] the test system is OR51L1 T196I/A207V clone 1533.
Assay [20] has as its system OR51L1 clone 1183.

Where “and” joins values, the source holds several entries; their conditions need not be identical. Equal values may be shown once. The list shows a part of the results. Single wells; the ratio to wells without odorant was worked out here, and repeats agree poorly.

As to `CCCC(=O)O` [butyric acid], the odorant receptor activation in assay [1] turned out to be 0.67; in [2], 1.21; in assay [3] it was 1.15; in [4], 1.89; in assay [5], 0.602; in assay [6], 0.896. Further, the odorant receptor activation in assay [7] turned out to be 1.2; in assay [8], 1.45; in [9], 1.13; in assay [10] it was 1.28; in assay [11] it was 0.833; in [12] it was 0.986. Further, the odorant receptor activation in [13] is 0.913; in assay [14], 1; in assay [15], 1.02; in assay [16] it was 1.25; in [17], 1.08; in assay [18], 0.866. Further, the odorant receptor activation in assay [19] was 0.942; in [20] it was 1.07.
For the molecule `CC(C)CCC(=O)O` [4-methylvaleric acid], the odorant receptor activation in assay [1] was 0.711; in assay [2] it was 1.05; in assay [3] it was 0.669; in [4], 0.771; in assay [5] it was 0.763; in assay [6] it was 1.2. Besides, the odorant receptor activation is 1.47 in [7]; 1.28 in assay [8]; 1.42 in [9]; 0.862 in assay [10]; 1.15 in assay [11]; 1.03 in assay [12]. In addition, the odorant receptor activation in [13] was found to be 1.3; in [14] it was 0.802; in assay [15], 0.765; in [16], 1.03; in assay [17], 0.678; in assay [18], 1.54. For the same molecule, the odorant receptor activation was 1.23 in [19] and 1.13 in assay [20].
Consider `C=C(C)C1CC=CCC1` (stereo unspecified) [r-limonene], for which the odorant receptor activation in assay [1] is 1.16; in assay [3] it was 1.04; in assay [4], 0.856; in assay [5], 1.15; in assay [6], 0.846; in assay [7] it was 1.48 and 0.837. In addition, the odorant receptor activation in [8] is 1.14 and 0.794 and 1; in assay [9], 1.08 and 0.773; in assay [10] it was 1 and 0.711; in [11], 0.723 and 0.248; in assay [12], 1.01 and 0.356; in assay [13], 0.859 and 0.506. For the same molecule, the odorant receptor activation in [14] is 1.13 and 0.561; in assay [15] it was 0.908; in [16] it was 1.06 and 0.51; in assay [17] it was 0.865; in assay [18] it was 0.966 and 1.1 and 0.815; in assay [19], 1.08 and 0.943 and 0.888. In addition, the odorant receptor activation in assay [20] was 0.86 and 0.628.
For the molecule `CC(C)=CCCC(C)=CC=O` [citral], the odorant receptor activation in [1] was 1.84; in [2], 1.19; in assay [3], 1.49; in [4], 1; in [5], 0.965; in assay [6] it was 1.54. For the same molecule, the odorant receptor activation in [7] was 1.03; in assay [8], 1.04; in assay [9], 1.45; in assay [10], 1.21; in assay [11], 0.987; in assay [12], 1.14. In addition, the odorant receptor activation in assay [13] worked out at 0.935; in assay [14], 1.11; in assay [15], 1.43; in assay [16], 1.21; in assay [17], 0.048; in assay [18] it was 0.887. For the same molecule, the odorant receptor activation in assay [19] is 0.698; in [20], 0.885.
In the case of `CCCCCCCCC=O` [nonyl aldehyde], the odorant receptor activation in [1] was determined as 0.857; in [2], 1.01; in [3], 1.57; in assay [4], 0.847; in [5], 1.04; in assay [6], 0.747. Further, the odorant receptor activation worked out at 1.02 in assay [7]; 1 in assay [8]; 1.35 in [9]; 1.33 in assay [10]; 0.893 in [11]; 1.03 in assay [12]. Also, the odorant receptor activation in [13] worked out at 0.855; in assay [14], 0.831; in assay [15] it was 0.916; in [16] it was 1.28; in [17], 0.732; in [18] it was 1.3. The odorant receptor activation in assay [19] turned out to be 0.848; in [20], 0.982.
As to `COC(=O)c1ccccc1` [methyl benzoate], the odorant receptor activation is 0.556 in [2]; 0.997 in assay [7]; 0.794 and 1.2 in [8]; 1.17 in [9]; 0.956 in [10]; 0.628 in assay [11]. In addition, the odorant receptor activation was 0.814 in assay [12]; 0.771 in assay [13]; 0.923 in assay [14]; 0.879 in [16]; 1.04 and 0.907 in assay [18]; 0.901 and 1 in assay [19]. Also, the odorant receptor activation in assay [20] came to 1.
For the molecule `CCCCCCCC=CC=O` [2-decenal], the odorant receptor activation stood at 1.02 in [1]; 1.35 in [2]; 0.901 in [3]; 0.95 in [4]; 1 in assay [5]; 1.2 in [6]. Moreover, the odorant receptor activation is 1.44 in assay [7]; 1.58 in assay [8]; 1.2 in assay [9]; 0.667 in assay [10]; 1.18 in assay [11]; 1.34 in assay [12]. The odorant receptor activation was 1.24 in assay [13]; 0.872 in assay [14]; 1.08 in assay [15]; 1.24 in [16]; 0.937 in assay [17]; 1.53 in [18]. Besides, the odorant receptor activation in [19] worked out at 1.17; in assay [20] it was 0.924.
Take `CC(C)(C)c1ccc(CCC=O)cc1` [bourgeonal]: the odorant receptor activation was determined as 0.798 in [2]; 0.68 in assay [7]; 0.776 in [8]; 0.684 in assay [9]; 0.765 in [10]; 0.577 in assay [11]. Also, the odorant receptor activation in assay [12] came to 0.615; in [13], 0.654; in assay [14], 0.674; in assay [16], 0.889; in [18], 0.886; in assay [19] it was 0.568. Moreover, the odorant receptor activation in [20] was 0.663.
As for `CC(=O)c1ccccc1` [acetophenone], the odorant receptor activation in assay [2] is 0.789; in [7] it was 1.13; in assay [8], 1.13 and 0.807; in [9], 1.27; in [10], 1.02; in assay [11], 0.87. The odorant receptor activation in assay [12] is 1.12; in [13], 1.06; in assay [14] it was 1.18; in assay [16] it was 1.2; in assay [18], 1.26 and 0.876; in assay [19] it was 0.754 and 0.725. This molecule also yielded an odorant receptor activation in [20] of 1.34.
For `CC12CCC(CC1)C(C)(C)O2` [cineole], the odorant receptor activation in assay [1] was determined as 0.618; in assay [2] it was 1.24; in assay [3], 1.12; in assay [4], 1.64; in [5] it was 0.699; in assay [6], 1. Also, the odorant receptor activation amounted to 0.986 in assay [7]; 1.04 in [8]; 0.984 in [9]; 1.17 in assay [10]; 0.971 in assay [11]; 0.923 in assay [12]. For the same molecule, the odorant receptor activation in assay [13] was found to be 0.895; in [14], 0.811; in assay [15] it was 0.903; in assay [16], 0.955; in assay [17] it was 0.921; in assay [18] it was 0.949. Also, the figures for the odorant receptor activation in [19] and in assay [20] were 1.09 and 0.78, respectively.
For the molecule `C=C(C)C1CCC2=CC(=O)CC(C)C2(C)C1` (stereo unspecified) [amyl laurate], the odorant receptor activation turned out to be 0.981 in assay [1]; 2.13 in [3]; 2.28 in assay [4]; 2.29 in [5]; 1.3 in assay [6]; 5.07 in assay [15]. The same molecule yielded an odorant receptor activation in assay [17] of 2.06.
For the molecule `CCCCCC(C)=O` [2-heptanone], the odorant receptor activation in [2] was 0.935; in assay [7], 1.23; in assay [8] it was 0.989 and 0.713; in [9] it was 1.04; in assay [10] it was 1.18; in assay [11], 1.42. Besides, the odorant receptor activation in assay [12] is 0.922; in assay [13], 1.04; in [14], 1.28; in [16], 1.1; in [18] it was 1.08 and 0.655; in assay [19] it was 0.927 and 0.646. Further, the odorant receptor activation in assay [20] was 0.958.
As for `C=CCSCC=C` [diallyl sulfide], the odorant receptor activation in assay [1] was found to be 0.878; in assay [2], 0.783; in assay [3], 0.877; in assay [4] it was 0.982; in assay [5], 0.844; in [6], 1.04. For the same molecule, the odorant receptor activation in assay [7] stood at 1.05; in assay [8] it was 1.45; in [9] it was 1.29; in assay [10], 0.868; in [11], 1.11; in assay [12], 0.975. Moreover, the odorant receptor activation in assay [13] stood at 1.31; in assay [14] it was 0.906; in assay [15], 0.773; in assay [16], 0.748; in assay [17] it was 0.888; in assay [18] it was 1.19. The odorant receptor activation is 1.56 in [19] and 0.906 in [20].
Consider `COc1cc(C)ccc1O` [2-methoxy-4-methylphenol], for which the odorant receptor activation is 0.712 in [1]; 1 in [2]; 0.859 in assay [3]; 0.735 in [4]; 0.66 in assay [5]; 0.854 in assay [6]. Moreover, the odorant receptor activation stood at 1.03 in [7]; 0.76 in [8]; 1.26 in [9]; 0.885 in [10]; 0.81 in assay [11]; 1.71 in assay [12]. Further, the odorant receptor activation is 1.15 in [13]; 0.87 in assay [14]; 0.882 in assay [15]; 1.36 in [16]; 0.704 in assay [17]; 0.926 in [18]. Also, the odorant receptor activation stood at 0.849 in assay [19] and 1.19 in assay [20].
As to `CC1=NC(C)SC1C` (stereo unspecified), the odorant receptor activation in assay [2] is 1.09; in [7] it was 1.08; in assay [8] it was 0.906 and 1.05; in [9] it was 0.695; in assay [10] it was 1.1; in assay [11], 1.08. Besides, the odorant receptor activation is 0.587 in assay [12]; 0.867 in assay [13]; 0.931 in assay [14]; 0.638 in assay [16]; 0.85 and 0.727 in assay [18]; 1.14 and 0.928 in assay [19]. In assay [20], the odorant receptor activation stood at 1.06.
Take `COc1ccccc1O` [guaiacol]: the odorant receptor activation in assay [1] was 0.713; in assay [2] it was 0.987; in [3], 0.646; in assay [4], 0.992; in assay [5], 0.764; in assay [6], 0.649. The odorant receptor activation in [7] is 0.75; in assay [8], 0.824 and 1.35; in assay [9] it was 1.08; in assay [10] it was 1.02; in assay [11], 0.398 and 0.888; in assay [12], 0.934. Besides, the odorant receptor activation in [13] was 1.13; in [14] it was 0.922; in assay [15], 0.87; in assay [16], 0.699; in assay [17] it was 0.843; in [18], 0.762 and 1.03. The odorant receptor activation is 1.04 and 1.06 in [19]; 0.699 in assay [20].
